The test system of data set [1] is T1, XreR1 (Photorhabdus luminescens DJC).
T1 sequence (looked up): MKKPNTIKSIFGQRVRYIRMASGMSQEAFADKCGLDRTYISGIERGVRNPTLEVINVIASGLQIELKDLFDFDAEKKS
The data set can be described thus: MST. Conditions: recombinant protein, residues 1-78, protein details: His6-SUMO, cleaved off with Senp2, probe letters rebuilt from the primers and the genome.

The test system of data set [2] is T2, XreR2 (Photorhabdus luminescens DJC).
T2 sequence (looked up): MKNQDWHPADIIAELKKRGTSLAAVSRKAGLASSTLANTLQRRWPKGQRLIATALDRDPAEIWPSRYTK
The data set can be described thus: MST. The settings on record: recombinant protein, residues 1-69, protein details: His6-SUMO, cleaved off with Senp2, probe letters rebuilt from the primers and the genome.

Data set [3] shares this test system. The data set can be described thus: SPR. The settings on record: not quantifiable, 100-2500 nM, no saturation, lower affinity than XreR1; SPR (Biacore 3000, SA chip), proteins in dialysis buffer: 50 mM Tris/HCl pH 7.5, 10% glycerol, 500 mM NaCl, 2 mM beta-mercaptoethanol; 25 C; 30 ul/min; 1:1 binding fit; recombinant protein; residues 1-69; protein details: His6-SUMO, cleaved off with Senp2; label: 5'-biotin (SPR); probe letters rebuilt from the primers and the genome. On the technique in general: In SPR one partner is held on a chip, and binding of the other changes the refractive index at the surface.

For some of these results: No signal at the amounts used counts as a negative. Protein sequences can lack the tags named with them.

As for “CGTGTTAGGTTTTTTCATTCGATAAGTATCGAACGATGTTACTTATCAAACCACGGACTATAAGTCACGTTTTCCTGTAACTCGTGTTACTAATATGACTTACCGCAAAAATACGATGAATGATATTTTAATAACAAAGTGATCTTGTCATTGGGAGGATTAAAACGCTCAATTATCATGGCACAAAAGGCATATATAGCTTCTCTTATCATTCGCTTCCTTAATGGCATAGACGCTACCGCCTTTGTTTGGGATTACGCCAAACAAATATAACGTTACAAACCAAAAATATGAAAAATCTTCGAACACATTAATTAAATTAATTTATTTTATCAAGAAATTTGCCAATCTGGTCGCAAGTATTATTTATTAAG (double strand) [PxreR1]”, the binding result in data set [1] (label: 5'-biotin (SPR)), in data set [2] (label: 5'-biotin (SPR)) and in data set [3] was “binds” in each case.
For “ATTAGCCATCCATTTAATGGGGTAACTTCAACTTAAATTATTGTTTAATCATCTTGCAAACTGGTTGTACCAATATTTGCTTCTTGTATTTTTATGTTACAACGATAAAAATAAAAAGAATATCCAGAAAATAAGATTTTTTATTATAATAATCTCAATCTATAAGTTTCGTTAGAAATAATAACGCCCTGAATTTTATGCTCAAAACTATTAATGTAACTTCGCGCTCATAAATATAATTCCTGTTCCATTTGTAATGTCTGTAAAATAGCAAAGGAAACTTTTTATATCAACAAAATTTATTAATAAAAATTTAAATTAAAGAAATCAAGCTCTTCTTTATATACAAA (double strand) [PluxC]”, the binding result in data set [1] (label: 5'-Cy5) and in data set [2] (label: 5'-Cy5) was “no binding” throughout.
With “CTGAACTATTCCTATCGTTATTTATACCCGTCATCTTTCAAGTTGCCTCTTTGTTGGCCGCACTCGGTCACATCGTTATCTATGCTACCGGGGATTCACTCCCTTGCCGTCATGATACATCTTGAAATCTATAGGGTATATATTATTGCTATTCACGGAAAAACACGATTACCCCTAACAAGCATTATTCATAAATTAGTGACAGTTTTTGTCAGCATTTACGAAAAATATTAACCTTTTCACGTAAAGAACAATAATATATCGGTGTTACATTTACAATAACTTATAATACCAAAACACTTTATCATGTCACTATACAAATTCATACTTTCTGACTAATCAGAAAATAAAATAAAGGGTCAGCAATAATTTCTGCATTA (double strand) [PantA]”, the binding result in data set [1] (label: 5'-Cy5) and in data set [2] (label: 5'-Cy5) was “no binding” in each case.

For the origin of these results see PMC7905540.
